Results from the supplement of paper PMC12819154, “High-throughput peptide-centric local stability assay extends protein–ligand identification to membrane proteins, tissues and bacteria” (Nature Structural & Molecular Biology, 2025).
The other results are listed elsewhere or left out. Small differences around the control level are noise.

Sequences of proteins named here, by UniProt entry; tags and fusion partners are left off. A change or cut given only in a name is not applied to a line headed by its entry.
UniProt O95229: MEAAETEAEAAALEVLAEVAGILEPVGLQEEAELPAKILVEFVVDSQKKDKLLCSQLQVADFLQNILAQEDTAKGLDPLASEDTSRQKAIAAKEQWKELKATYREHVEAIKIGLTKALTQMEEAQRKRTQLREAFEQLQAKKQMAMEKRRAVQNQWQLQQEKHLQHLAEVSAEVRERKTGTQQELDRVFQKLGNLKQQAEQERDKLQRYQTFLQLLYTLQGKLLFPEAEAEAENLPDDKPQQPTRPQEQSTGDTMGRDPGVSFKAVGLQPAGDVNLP
UniProt O95292, whole entry: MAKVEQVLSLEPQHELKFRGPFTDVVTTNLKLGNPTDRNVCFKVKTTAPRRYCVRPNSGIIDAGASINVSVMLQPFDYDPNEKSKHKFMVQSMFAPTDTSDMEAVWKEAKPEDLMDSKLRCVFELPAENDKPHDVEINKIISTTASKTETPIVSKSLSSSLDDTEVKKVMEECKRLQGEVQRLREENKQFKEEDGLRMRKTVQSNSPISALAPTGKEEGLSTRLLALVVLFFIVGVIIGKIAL
UniProt O75648: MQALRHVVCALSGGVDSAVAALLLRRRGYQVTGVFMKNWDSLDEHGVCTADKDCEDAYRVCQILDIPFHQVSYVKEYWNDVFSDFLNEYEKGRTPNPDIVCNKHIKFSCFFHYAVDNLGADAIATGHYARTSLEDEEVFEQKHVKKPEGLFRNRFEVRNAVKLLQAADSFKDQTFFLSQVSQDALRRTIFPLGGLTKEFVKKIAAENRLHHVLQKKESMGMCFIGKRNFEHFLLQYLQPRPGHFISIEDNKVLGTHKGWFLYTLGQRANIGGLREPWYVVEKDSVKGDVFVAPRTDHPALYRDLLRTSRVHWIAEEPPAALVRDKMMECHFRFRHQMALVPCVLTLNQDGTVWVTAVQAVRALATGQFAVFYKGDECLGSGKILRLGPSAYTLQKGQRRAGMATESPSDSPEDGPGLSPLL
UniProt O75496: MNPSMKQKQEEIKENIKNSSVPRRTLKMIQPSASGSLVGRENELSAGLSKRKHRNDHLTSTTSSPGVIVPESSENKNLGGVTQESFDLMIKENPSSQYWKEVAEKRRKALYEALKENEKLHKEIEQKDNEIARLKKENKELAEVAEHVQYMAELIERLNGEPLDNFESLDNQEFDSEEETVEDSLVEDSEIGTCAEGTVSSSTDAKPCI
UniProt O95166, whole entry: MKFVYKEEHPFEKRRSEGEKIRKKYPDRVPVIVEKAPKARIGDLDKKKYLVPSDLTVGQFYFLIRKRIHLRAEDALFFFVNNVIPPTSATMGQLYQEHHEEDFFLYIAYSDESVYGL
UniProt O75446: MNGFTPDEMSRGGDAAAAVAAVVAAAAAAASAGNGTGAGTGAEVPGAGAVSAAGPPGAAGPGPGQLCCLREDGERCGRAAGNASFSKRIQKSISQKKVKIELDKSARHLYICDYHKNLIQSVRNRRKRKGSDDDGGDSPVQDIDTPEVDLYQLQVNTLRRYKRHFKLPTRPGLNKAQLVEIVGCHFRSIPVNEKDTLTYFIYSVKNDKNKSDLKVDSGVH
UniProt O94973, whole entry: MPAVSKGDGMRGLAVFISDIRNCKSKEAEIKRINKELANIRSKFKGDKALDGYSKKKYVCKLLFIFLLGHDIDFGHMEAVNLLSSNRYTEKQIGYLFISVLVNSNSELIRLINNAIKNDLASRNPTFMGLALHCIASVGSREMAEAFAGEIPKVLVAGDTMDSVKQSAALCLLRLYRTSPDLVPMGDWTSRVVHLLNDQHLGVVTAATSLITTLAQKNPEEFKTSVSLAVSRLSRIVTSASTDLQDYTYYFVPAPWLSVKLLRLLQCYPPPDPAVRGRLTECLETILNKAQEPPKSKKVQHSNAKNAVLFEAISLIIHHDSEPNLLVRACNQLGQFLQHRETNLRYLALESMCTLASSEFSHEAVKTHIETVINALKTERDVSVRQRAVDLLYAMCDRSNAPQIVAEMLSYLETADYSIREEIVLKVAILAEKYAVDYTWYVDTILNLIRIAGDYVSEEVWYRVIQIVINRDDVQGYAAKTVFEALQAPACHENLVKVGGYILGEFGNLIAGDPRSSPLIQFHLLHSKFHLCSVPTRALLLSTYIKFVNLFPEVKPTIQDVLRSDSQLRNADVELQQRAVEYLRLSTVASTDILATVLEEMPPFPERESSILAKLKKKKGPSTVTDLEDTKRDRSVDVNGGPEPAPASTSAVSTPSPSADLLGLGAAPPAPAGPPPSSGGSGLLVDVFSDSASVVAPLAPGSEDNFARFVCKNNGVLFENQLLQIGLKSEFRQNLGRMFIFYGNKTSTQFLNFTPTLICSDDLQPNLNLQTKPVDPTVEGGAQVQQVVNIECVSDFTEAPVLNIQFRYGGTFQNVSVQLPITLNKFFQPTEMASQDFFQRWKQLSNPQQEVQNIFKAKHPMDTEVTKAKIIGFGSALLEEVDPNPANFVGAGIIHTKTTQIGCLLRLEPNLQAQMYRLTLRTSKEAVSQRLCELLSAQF
UniProt O95379: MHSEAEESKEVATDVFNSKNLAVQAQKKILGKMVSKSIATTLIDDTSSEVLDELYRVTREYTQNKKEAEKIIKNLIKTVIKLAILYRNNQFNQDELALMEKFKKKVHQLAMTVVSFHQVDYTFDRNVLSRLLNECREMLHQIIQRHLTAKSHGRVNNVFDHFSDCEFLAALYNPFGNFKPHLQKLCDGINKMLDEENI
UniProt O94885: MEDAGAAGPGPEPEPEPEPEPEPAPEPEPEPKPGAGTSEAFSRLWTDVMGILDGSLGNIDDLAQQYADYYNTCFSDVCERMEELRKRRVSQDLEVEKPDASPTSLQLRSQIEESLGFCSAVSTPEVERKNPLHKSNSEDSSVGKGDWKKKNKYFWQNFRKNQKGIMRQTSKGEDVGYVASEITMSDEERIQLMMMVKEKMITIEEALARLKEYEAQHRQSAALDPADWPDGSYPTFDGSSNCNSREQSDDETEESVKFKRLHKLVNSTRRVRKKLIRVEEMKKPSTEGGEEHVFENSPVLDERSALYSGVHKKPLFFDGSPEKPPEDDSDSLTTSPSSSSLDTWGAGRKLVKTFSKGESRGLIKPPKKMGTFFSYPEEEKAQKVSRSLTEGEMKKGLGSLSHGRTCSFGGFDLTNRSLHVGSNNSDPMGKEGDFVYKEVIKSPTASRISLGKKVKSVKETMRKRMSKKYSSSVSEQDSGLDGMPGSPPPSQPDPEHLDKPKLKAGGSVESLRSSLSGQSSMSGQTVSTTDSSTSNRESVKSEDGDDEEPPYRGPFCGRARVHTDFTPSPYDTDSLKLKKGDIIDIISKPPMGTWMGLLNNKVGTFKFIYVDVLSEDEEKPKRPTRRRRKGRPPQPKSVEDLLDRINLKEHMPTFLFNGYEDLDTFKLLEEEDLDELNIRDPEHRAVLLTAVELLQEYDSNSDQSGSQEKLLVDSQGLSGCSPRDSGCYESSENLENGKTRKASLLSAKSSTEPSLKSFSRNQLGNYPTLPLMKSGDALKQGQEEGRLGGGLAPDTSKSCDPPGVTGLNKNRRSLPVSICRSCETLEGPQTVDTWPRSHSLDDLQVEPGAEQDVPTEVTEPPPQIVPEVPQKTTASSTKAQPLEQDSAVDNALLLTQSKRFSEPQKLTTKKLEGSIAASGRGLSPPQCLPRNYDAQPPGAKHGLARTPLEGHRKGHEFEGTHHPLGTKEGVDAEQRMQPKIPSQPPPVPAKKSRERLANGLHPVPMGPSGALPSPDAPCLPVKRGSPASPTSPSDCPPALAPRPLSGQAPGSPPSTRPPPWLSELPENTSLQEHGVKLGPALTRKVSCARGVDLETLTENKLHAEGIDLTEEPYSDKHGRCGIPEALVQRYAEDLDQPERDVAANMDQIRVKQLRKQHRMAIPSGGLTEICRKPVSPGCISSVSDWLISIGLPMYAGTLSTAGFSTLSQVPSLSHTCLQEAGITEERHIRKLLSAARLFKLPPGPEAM
UniProt O75865, whole entry: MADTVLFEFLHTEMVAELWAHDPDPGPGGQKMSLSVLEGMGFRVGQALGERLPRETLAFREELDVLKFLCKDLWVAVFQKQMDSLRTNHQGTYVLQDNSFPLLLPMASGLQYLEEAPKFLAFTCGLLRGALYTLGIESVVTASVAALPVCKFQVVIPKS
UniProt O95644: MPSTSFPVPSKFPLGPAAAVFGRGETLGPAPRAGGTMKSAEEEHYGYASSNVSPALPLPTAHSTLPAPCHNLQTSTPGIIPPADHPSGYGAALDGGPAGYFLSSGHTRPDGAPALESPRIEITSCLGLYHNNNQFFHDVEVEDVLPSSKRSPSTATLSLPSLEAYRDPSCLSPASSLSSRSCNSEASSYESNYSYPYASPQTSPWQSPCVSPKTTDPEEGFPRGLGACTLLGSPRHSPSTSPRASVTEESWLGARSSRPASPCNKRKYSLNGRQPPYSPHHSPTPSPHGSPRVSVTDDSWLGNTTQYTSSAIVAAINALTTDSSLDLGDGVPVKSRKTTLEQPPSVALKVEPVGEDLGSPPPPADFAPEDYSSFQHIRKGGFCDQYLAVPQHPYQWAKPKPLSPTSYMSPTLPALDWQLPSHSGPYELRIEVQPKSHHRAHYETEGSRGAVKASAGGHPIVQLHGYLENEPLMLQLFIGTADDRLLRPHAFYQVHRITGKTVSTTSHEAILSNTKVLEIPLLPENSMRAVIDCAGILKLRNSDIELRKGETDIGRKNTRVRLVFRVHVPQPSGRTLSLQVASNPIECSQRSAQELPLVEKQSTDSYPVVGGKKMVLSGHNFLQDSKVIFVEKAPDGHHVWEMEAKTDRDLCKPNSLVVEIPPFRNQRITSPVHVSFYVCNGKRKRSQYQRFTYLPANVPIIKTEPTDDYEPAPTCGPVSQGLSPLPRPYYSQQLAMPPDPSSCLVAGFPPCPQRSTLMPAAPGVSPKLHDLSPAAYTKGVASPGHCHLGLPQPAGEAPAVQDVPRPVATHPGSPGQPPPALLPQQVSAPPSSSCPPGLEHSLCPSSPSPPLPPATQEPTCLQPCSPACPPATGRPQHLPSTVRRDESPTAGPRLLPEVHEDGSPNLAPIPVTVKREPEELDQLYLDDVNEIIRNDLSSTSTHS
UniProt O75437: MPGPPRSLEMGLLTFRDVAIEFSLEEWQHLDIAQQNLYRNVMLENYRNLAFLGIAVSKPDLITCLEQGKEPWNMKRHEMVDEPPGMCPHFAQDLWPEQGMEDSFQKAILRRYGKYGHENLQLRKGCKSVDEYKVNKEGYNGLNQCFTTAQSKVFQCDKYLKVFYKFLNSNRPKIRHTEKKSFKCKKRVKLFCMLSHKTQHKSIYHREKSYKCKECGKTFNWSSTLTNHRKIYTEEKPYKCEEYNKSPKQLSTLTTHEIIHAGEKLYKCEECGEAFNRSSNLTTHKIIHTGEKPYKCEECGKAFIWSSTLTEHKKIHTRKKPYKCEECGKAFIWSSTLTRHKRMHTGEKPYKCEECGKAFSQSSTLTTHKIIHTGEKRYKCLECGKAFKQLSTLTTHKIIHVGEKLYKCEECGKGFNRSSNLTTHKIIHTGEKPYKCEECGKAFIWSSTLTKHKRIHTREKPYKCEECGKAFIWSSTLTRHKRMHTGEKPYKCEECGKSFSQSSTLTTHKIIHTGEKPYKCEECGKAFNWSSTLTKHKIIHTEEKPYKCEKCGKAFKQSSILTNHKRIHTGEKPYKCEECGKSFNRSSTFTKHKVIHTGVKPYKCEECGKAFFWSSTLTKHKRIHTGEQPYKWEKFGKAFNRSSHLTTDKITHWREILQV
UniProt O95049: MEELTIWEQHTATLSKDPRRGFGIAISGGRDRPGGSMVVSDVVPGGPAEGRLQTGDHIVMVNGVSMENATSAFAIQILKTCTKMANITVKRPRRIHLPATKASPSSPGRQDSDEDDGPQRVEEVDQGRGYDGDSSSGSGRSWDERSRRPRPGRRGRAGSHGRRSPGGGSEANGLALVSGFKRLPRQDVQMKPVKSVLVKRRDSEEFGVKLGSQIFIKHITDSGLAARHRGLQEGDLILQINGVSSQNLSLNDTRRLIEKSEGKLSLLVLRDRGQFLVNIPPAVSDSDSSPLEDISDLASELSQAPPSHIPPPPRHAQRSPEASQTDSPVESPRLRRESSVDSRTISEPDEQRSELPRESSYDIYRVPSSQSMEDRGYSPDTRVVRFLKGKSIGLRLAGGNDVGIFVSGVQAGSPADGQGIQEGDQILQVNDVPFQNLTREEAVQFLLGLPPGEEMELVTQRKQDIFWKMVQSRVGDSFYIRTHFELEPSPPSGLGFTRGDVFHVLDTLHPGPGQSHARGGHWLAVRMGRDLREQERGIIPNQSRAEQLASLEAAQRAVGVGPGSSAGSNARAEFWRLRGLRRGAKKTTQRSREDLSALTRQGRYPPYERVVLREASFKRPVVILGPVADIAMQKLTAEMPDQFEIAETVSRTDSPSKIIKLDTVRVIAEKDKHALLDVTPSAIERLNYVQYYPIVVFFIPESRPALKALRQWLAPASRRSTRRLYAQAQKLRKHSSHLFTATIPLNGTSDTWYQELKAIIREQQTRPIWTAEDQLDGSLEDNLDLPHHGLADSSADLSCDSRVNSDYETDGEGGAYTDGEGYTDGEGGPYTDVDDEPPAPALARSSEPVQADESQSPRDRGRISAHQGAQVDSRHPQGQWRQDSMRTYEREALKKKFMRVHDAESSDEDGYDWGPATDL

Compound: CN[C@@H]1C[C@H]2O[C@@](C)([C@@H]1OC)n1c3ccccc3c3c4c(c5c6ccccc6n2c5c31)C(=O)NC4 [staurosporine]
Test: log2 fold change of tryptic peptide abundance, ligand vs vehicle (limited proteolysis) (log2 ratio); higher = more trypsin-susceptible (destabilized)
Details: ligand concentration: 20 uM; sample: K562 cleared lysate; digestion: 4 min, 22 C (HT-PELSA RT4min, Orbitrap Astral)

## ZWINT (peptide sequence: EHVEAIKIGLTK, peptide start residue: 105) (UniProt O95229)
  log2 fold change: 0.626

## VAPB (peptide sequence: IISTTASKTETPIVSK, peptide start residue: 140) (UniProt O95292)
  log2 fold change: -0.39

## TRMU (peptide sequence: VHWIAEEPPAALVR, peptide start residue: 310) (UniProt O75648)
  log2 fold change: -0.612

## CCNK (peptide sequence: AAEPPPPKIPK, peptide start residue: 347) (UniProt O75909)
  log2 fold change: -0.104

## GMNN (peptide sequence: ALYEALKENEK, peptide start residue: 109) (UniProt O75496)
  log2 fold change: -0.416

## UniProt O95163 (peptide sequence: EYLPFLNTLKK, peptide start residue: 916)
  log2 fold change: 0.366

## UniProt O95166 (peptide sequence: IGDLDKKK, peptide start residue: 41)
  log2 fold change: -0.572

## PALM (peptide sequence: ENAAAPSPVR, peptide start residue: 110) (UniProt O75781)
  log2 fold change: -0.634

## UniProt O94874 (peptide sequence: IPEDQHALLVK, peptide start residue: 720)
  log2 fold change: 0.301

## SAP30 (peptide sequence: AQLVEIVGCHFR, peptide start residue: 176) (UniProt O75446)
  log2 fold change: -0.222

## ZNF324 (peptide sequence: RVMLDNFALVASLGLSTSRPR, peptide start residue: 28) (UniProt O75467)
  log2 fold change: 0.5

## FARP2 (peptide sequence: GEIEGTYR, peptide start residue: 2) (UniProt O94887)
  log2 fold change: -0.143

## PGM3 (peptide sequence: YLEEVMKVPVYCTK, peptide start residue: 337) (UniProt O95394)
  log2 fold change: -0.28

## TIPRL (peptide sequence: VMPSSFFLLLR, peptide start residue: 174) (UniProt O75663)
  log2 fold change: -0.179

## SCO1 (peptide sequence: GPGDSTRPSKPGPVSWK, peptide start residue: 80) (UniProt O75880)
  log2 fold change: 0.229

## UniProt O96015 (peptide sequence: LQTFPLVR, peptide start residue: 16)
  log2 fold change: 0.0375

## USP19 (peptide sequence: YAYVLFYR, peptide start residue: 1205) (UniProt O94966)
  log2 fold change: 0.278

## B3GAT3 (peptide sequence: FEGPQVQDGR, peptide start residue: 226) (UniProt O94766)
  log2 fold change: 0.228

## MLYCD (peptide sequence: ADLLEAQALK, peptide start residue: 159) (UniProt O95822)
  log2 fold change: -0.0106

## AP2A2 (peptide sequence: SSPLIQFHLLHSK, peptide start residue: 516) (UniProt O94973)
  log2 fold change: 0.143

## TNFAIP8 (peptide sequence: NLAVQAQK, peptide start residue: 20) (UniProt O95379)
  log2 fold change: -0.122

## SASH1 (peptide sequence: LGGGLAPDTSK, peptide start residue: 787) (UniProt O94885)
  log2 fold change: -0.572

## TRAPPC6A (peptide sequence: FLAFTCGLLR, peptide start residue: 119) (UniProt O75865)
  log2 fold change: -0.128

## NFATC1 (peptide sequence: HSPSTSPR, peptide start residue: 236) (UniProt O95644)
  log2 fold change: -0.376

## UniProt O75437 (peptide sequence: CEECGEAFNR, peptide start residue: 268)
  log2 fold change: 0.117

## UniProt O94880 (peptide sequence: QLSPEAQAR, peptide start residue: 528)
  log2 fold change: -0.46

## UniProt O95049 (peptide sequence: AVGVGPGSSAGSNAR, peptide start residue: 557)
  log2 fold change: 0.269

## PIAS2 (peptide sequence: SGCSPAVQIK, peptide start residue: 47) (UniProt O75928)
  log2 fold change: -0.32

## SEC31A (peptide sequence: YLELLGYRK, peptide start residue: 489) (UniProt O94979)
  log2 fold change: 0.776
